From PubChem BioAssay AID1487 (National Center for Advancing Translational Sciences (NCATS), 2009)
Some of the results follow. The main result of the screen is listed elsewhere. These columns were measured beside it and carry no call. Compounds called inactive in the main read-out are mostly missing here. Words in brackets tell the shape of the fitted curve; partial curves, single points and poor fits give uncertain potencies.

Assay: qHTS Assay for Modulators of Lamin A Splicing
Conditions: HeLa LMNA splicing GFP/RFP minigene ratio, 48 h
In short: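 S3 HeLa stable clones carrying a lamin A-EGFP splicing minigene plus DsRed2 were seeded at 600 cells/well in Opti-MEM with 2% FBS, pin-dosed and incubated 48 h at 37°C. Acumen cytometry (488 nm) gave the GFP/RFP total-intensity ratio.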

[1] = measured here: GFP splicing reporter channel
[2] = measured here: RFP viability control channel

Compound | AC50 [1] | AC50 [2]
CCS(=O)(=O)c1ccc(C(=O)N2CCN(c3nc4c(OC)ccc(C)c4s3)CC2)cc1 | 14.1 µM [falling, partial curve, poor fit] | 
CCN(CC(=O)NC1CCS(=O)(=O)C1)c1nc(-c2ccccc2)nc2ccccc12 (stereo not drawn) | 14.1 µM [rising, single point] | 12.6 µM [rising, single point]
Cc1ccc(C(=O)NC(=S)Nc2ccccc2N2CCCC2)cc1[N+](=O)[O-] |  | 2.51 µM [rising, full curve]
CCC(/C=N/NC(=O)c1ccccc1F)CC | 7.08 µM [falling, full curve, poor fit] | 6.31 µM [falling, full curve, poor fit]
O=C1C2CCCN2C(c2cccs2)N1c1ccc(F)cc1 (stereo not drawn) | 0.355 µM [rising, full curve, poor fit] | 0.282 µM [rising, partial curve, poor fit]
COC(=O)c1sccc1NC(=O)Cc1ccc(OC)c(OC)c1 |  | 14.1 µM [rising, partial curve]
CCOC(=O)N1CCc2c(sc(NCc3cc(OC)ccc3OC)c2C(=O)Nc2cc(OC)ccc2OC)C1 |  | 1.41 µM [falling, full curve, poor fit]
COc1cc2c(cc1NC(=O)c1ccc(C(C)(C)C)cc1)CCCC2 | 6.31 µM [rising, partial curve] | 11.2 µM [rising, partial curve]
CCn1c(CCNC(=O)c2ccc(OC)cc2)nnc1SCc1ccc(Cl)c(Cl)c1 |  | 25.1 µM [rising, partial curve]
OC(COCCOc1ccc(Br)cc1)CN1CCN(Cc2ccccc2)CC1 (stereo not drawn) | 14.1 µM [rising, single point] | 
COC(=O)Cc1c[nH]c2cccc(OCC(O)CN(Cc3ccc([N+](=O)[O-])cc3)C(C)(C)C)c12 (stereo not drawn) | 35.5 µM [falling, single point] | 35.5 µM [falling, single point]
CCOC(=O)c1cc(-c2ccccc2)sc1NC(=O)C(C)OC(=O)c1cccc(S(=O)(=O)N(C)C)c1 (stereo not drawn) |  | 0.00316 µM [falling, full curve, poor fit]
c1ccc2c(CNc3ccc(CNc4ncn[nH]4)cc3)cccc2c1 |  | 20 µM [rising, single point]
COc1cc(C2Nc3ccc4ncccc4c3C3=C2C(=O)CCC3)ccc1O (stereo not drawn) |  | 12.6 µM [rising, single point]
COc1cc2c(cc1OC)-c1cc3ccc(OC)c(OC)c3c[n+]1CC2 | 0.316 µM [falling, full curve, poor fit] | 0.501 µM [falling, full curve, poor fit]
COc1cccc(-c2ccc3ncnc(NC4CC4)c3c2)c1 | 14.1 µM [falling, partial curve] | 15.8 µM [falling, partial curve, poor fit]
COC(=O)[C@H]1[C@H]2C[C@@H]3c4[nH]c5cc(OC)ccc5c4CCN3C[C@H]2C[C@@H](OC(=O)c2cc(OC)c(OC)c(OC)c2)[C@@H]1OC | 10 µM [falling, partial curve] | 17.8 µM [falling, partial curve]
NC(=O)c1ccc(N=Cc2ccc([N+](=O)[O-])s2)cc1 | 35.5 µM [falling, single point] | 
Cn1c(CSCc2ccc(Cl)cc2)nnc1SCC(=O)Nc1nccs1 |  | 11.2 µM [rising, partial curve, poor fit]
CN(C)c1ccc(/C=N/NC(=O)c2ccc(Cn3cc(Br)cn3)o2)cc1 | 35.5 µM [rising, partial curve, poor fit] | 
CCCCCn1c(=O)[nH]c2cc(C(=O)NCCCN(C)Cc3ccccc3)ccc2c1=O | 1 µM [falling, full curve] | 
CN1CCN(c2ccc(CNS(=O)(=O)c3ccccc3)cc2)CC1 | 0.0562 µM [rising, full curve, poor fit] | 
COc1ccc(N2CCN(c3c(S(=O)(=O)c4ccccc4)cnc4ccc(OC)cc34)CC2)cc1 |  | 35.5 µM [rising, single point]
COC(=O)c1ccccc1OCCCOc1ccc(C)cc1OC | 1.26 µM [falling, partial curve] | 
O=C(Nc1ccc(S(=O)(=O)NC2CCCCC2)cc1)c1ccc(Br)o1 |  | 20 µM [rising, partial curve, poor fit]
CCOC(=O)Cc1csc(/C(=N/O)C(N)=O)n1 | 22.4 µM [rising, single point] | 
O=C(CC12CC3CC(CC(C3)C1)C2)NC(Cc1ccccc1)C(=O)O (stereo not drawn) |  | 0.00447 µM [falling, full curve, poor fit]

Compound | AC50 [1] | AC50 [2]
Cc1cc(C(C)(C)C)cc(C)c1COC(=O)C1CCC(=O)N1 (stereo not drawn) |  | 35.5 µM [rising, single point]
COc1cc(CNC(=O)c2ccc3c(c2)N(C)C(=O)C2CCCCN32)cc(OC)c1OC (stereo not drawn) | 0.00355 µM [falling, full curve, poor fit] | 
Cc1ccccc1S(=O)(=O)c1c(C)cc(C)n(C(C)C)c1=O | 35.5 µM [rising, single point] | 31.6 µM [rising, single point]
O=C(CSc1ncnc2[nH]ncc12)Nc1nc(-c2ccc(F)c(F)c2)cs1 | 35.5 µM [falling, single point] | 
Cc1nc2sc(C(c3ccco3)N3CCC(Cc4ccccc4)CC3)c(O)n2n1 (stereo not drawn) | 14.1 µM [rising, single point] | 
Cc1ccc(S(=O)(=O)N(C)C(=O)NC(=O)NS(=O)(=O)c2ccccc2)cc1 | 0.0224 µM [rising, full curve, poor fit] | 0.282 µM [rising, full curve, poor fit]
COc1ccccc1-c1nnc(SCC(=O)Nc2ccccc2F)o1 |  | 10 µM [falling, partial curve, poor fit]
Cc1ccc(C(=O)N2CCN(S(=O)(=O)c3ccccc3)CC2)cc1 |  | 0.0355 µM [falling, full curve, poor fit]
CCCCC[C@H](O)/C=C/[C@H]1C=CC(=O)[C@@H]1C/C=C\CCCC(=O)O | 0.0562 µM [falling, full curve, poor fit] | 0.00794 µM [falling, full curve, poor fit]
CS/C(=N\S(=O)(=O)c1cccs1)Nc1ccc(Cl)cc1 |  | 35.5 µM [rising, single point]
COc1ccc(OCCNc2cc(Cl)ccc2[N+](=O)[O-])cc1 |  | 2 µM [rising, partial curve]
COc1ccc(NC(=O)C2CCN(Cc3cnn(-c4ccccc4)c3-n3cccc3)CC2)cc1OC | 10 µM [rising, partial curve, poor fit] | 15.8 µM [rising, single point]
CC(=O)Nc1nc2ccccc2n1Cc1ccccc1C |  | 35.5 µM [rising, single point]
Cc1nc2cc(NC(=O)c3ccc(N4C(=O)CCC4=O)cc3)ccc2s1 |  | 6.31 µM [falling, partial curve]
Nc1c(C(=O)Nc2nc3ccccc3s2)sc2nc(-c3cccs3)ccc12 | 1.58 µM [rising, full curve] | 
COc1cc(OC)c2c(C)c(Cl)c(=O)oc2c1 |  | 0.00891 µM [falling, full curve, poor fit]
O=c1cc(NS(=O)(=O)c2ccccc2)nc(SCc2ccccc2Cl)[nH]1 |  | 10 µM [rising, partial curve, poor fit]
CCc1c(C)nc(SCC(=O)Nc2nc(-c3ccc(OC)cc3)cs2)[nH]c1=O | 20 µM [rising, partial curve, poor fit] | 0.0112 µM [rising, full curve, poor fit]
CN(Cc1ccco1)C(=O)c1ccc2c(c1)N(Cc1ccccc1F)C(=O)c1ccccc1S2 | 35.5 µM [rising, single point] | 31.6 µM [rising, single point]
Cc1cc(C(=O)CSc2nc(N)cc(=O)[nH]2)c(C)n1-c1ccc(OC(F)F)cc1 | 3.98 µM [falling, full curve, poor fit] | 
COc1cccc(-c2nc(NCc3ccccc3OC)c3ccccc3n2)c1 | 11.2 µM [falling, partial curve, poor fit] | 12.6 µM [falling, single point]
Cc1cccc2sc(NC(=O)CN(C)S(=O)(=O)c3cccs3)nc12 | 31.6 µM [falling, single point] | 5.62 µM [falling, single point]
COc1ccc(OC)c(C(c2nnnn2C2CCCC2)N2CCc3ccccc3C2)c1 (stereo not drawn) | 35.5 µM [rising, single point] | 22.4 µM [rising, single point]
COc1ccc(-c2nnc(SCC(=O)Nc3cc(S(=O)(=O)N4CCCCC4)ccc3Cl)n2N)cc1 | 35.5 µM [rising, single point] | 35.5 µM [rising, single point]
O=S(=O)(c1ccc2nc(SCc3ccc(Cl)cc3)[nH]c2c1)N1CCOCC1 | 20 µM [rising, single point] | 22.4 µM [rising, single point]
Cc1cccc(N2CCN(C(=O)c3cccn4c(=O)c5cc(Cl)ccc5nc34)CC2C)c1 (stereo not drawn) | 14.1 µM [falling, single point] | 11.2 µM [falling, partial curve, poor fit]

In another format: entries from further up.
Compound	AC50 [1]	AC50 [2]
Cc1ccc(C(=O)NC(=S)Nc2ccccc2N2CCCC2)cc1[N+](=O)[O-]		2.51 µM [rising, full curve]
CCC(/C=N/NC(=O)c1ccccc1F)CC	7.08 µM [falling, full curve, poor fit]	6.31 µM [falling, full curve, poor fit]
O=C1C2CCCN2C(c2cccs2)N1c1ccc(F)cc1 (stereo not drawn)	0.355 µM [rising, full curve, poor fit]	0.282 µM [rising, partial curve, poor fit]
